Assay results taken from the supplement of paper PMC10849652.
The list shows a part of the results. Residues, ends and D or L forms follow the SMILES beside them. *: point of attachment. Cbz = O=C(OCc1ccccc1)*

The chains behind the UniProt entries cited, without tags or fusion partners. Where a name states a change or a piece, a line headed by the entry shows the natural chain unless it says otherwise.
UniProt Q9NXJ5: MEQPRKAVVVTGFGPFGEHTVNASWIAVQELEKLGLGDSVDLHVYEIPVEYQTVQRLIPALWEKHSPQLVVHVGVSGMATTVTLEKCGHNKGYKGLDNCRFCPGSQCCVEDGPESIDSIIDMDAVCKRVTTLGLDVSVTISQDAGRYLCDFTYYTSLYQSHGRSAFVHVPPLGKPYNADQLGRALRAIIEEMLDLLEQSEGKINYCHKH
UniProt Q92521: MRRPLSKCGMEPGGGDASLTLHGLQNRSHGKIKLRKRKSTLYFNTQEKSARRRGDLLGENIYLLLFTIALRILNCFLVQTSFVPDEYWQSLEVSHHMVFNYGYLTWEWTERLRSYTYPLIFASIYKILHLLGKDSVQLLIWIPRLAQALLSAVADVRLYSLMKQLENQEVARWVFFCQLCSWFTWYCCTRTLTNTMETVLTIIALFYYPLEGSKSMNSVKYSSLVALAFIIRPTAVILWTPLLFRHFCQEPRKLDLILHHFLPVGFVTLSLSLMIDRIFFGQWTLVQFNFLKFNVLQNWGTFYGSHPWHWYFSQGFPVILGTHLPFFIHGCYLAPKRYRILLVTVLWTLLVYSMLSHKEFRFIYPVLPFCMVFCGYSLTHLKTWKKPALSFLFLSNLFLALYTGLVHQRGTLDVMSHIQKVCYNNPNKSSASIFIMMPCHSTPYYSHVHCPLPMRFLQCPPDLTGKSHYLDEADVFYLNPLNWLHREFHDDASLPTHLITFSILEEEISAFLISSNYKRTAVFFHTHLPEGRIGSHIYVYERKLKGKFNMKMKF
UniProt Q8TCD6: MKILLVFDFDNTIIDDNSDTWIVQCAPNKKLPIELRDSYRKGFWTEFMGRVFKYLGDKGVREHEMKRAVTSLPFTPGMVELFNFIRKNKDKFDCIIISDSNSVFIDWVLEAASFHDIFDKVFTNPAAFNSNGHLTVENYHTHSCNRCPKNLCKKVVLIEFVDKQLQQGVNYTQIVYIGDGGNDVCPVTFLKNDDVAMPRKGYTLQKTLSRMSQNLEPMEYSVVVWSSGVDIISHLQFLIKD
UniProt P46020: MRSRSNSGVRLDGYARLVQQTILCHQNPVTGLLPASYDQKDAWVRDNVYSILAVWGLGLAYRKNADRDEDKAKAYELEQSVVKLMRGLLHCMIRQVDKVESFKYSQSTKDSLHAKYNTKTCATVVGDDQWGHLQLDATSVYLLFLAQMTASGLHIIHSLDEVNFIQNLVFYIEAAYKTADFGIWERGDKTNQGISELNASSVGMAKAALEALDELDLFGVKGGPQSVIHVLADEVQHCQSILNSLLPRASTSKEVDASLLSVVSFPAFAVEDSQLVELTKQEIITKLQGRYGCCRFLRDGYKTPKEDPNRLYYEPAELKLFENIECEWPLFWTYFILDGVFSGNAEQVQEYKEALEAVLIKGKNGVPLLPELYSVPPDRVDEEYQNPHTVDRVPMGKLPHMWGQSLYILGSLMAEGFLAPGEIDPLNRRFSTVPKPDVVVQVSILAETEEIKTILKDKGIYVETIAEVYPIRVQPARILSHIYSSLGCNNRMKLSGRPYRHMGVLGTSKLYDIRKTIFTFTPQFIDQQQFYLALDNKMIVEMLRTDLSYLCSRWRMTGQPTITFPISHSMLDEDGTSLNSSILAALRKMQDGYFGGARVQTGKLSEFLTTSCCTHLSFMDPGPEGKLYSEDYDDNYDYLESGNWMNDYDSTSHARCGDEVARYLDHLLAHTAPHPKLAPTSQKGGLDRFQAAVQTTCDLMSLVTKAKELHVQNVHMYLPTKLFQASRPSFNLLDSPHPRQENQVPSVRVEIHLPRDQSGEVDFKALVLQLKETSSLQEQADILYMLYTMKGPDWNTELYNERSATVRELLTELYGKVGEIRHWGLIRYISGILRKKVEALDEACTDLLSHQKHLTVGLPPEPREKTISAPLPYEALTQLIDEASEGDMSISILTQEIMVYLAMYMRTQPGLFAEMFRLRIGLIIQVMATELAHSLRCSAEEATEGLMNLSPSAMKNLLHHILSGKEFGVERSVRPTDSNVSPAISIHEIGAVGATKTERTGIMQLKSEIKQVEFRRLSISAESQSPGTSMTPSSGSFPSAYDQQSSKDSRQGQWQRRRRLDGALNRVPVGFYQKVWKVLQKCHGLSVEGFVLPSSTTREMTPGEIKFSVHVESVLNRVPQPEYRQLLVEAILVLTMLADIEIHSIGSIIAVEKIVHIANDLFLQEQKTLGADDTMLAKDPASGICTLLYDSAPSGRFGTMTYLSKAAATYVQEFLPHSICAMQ
UniProt O00443: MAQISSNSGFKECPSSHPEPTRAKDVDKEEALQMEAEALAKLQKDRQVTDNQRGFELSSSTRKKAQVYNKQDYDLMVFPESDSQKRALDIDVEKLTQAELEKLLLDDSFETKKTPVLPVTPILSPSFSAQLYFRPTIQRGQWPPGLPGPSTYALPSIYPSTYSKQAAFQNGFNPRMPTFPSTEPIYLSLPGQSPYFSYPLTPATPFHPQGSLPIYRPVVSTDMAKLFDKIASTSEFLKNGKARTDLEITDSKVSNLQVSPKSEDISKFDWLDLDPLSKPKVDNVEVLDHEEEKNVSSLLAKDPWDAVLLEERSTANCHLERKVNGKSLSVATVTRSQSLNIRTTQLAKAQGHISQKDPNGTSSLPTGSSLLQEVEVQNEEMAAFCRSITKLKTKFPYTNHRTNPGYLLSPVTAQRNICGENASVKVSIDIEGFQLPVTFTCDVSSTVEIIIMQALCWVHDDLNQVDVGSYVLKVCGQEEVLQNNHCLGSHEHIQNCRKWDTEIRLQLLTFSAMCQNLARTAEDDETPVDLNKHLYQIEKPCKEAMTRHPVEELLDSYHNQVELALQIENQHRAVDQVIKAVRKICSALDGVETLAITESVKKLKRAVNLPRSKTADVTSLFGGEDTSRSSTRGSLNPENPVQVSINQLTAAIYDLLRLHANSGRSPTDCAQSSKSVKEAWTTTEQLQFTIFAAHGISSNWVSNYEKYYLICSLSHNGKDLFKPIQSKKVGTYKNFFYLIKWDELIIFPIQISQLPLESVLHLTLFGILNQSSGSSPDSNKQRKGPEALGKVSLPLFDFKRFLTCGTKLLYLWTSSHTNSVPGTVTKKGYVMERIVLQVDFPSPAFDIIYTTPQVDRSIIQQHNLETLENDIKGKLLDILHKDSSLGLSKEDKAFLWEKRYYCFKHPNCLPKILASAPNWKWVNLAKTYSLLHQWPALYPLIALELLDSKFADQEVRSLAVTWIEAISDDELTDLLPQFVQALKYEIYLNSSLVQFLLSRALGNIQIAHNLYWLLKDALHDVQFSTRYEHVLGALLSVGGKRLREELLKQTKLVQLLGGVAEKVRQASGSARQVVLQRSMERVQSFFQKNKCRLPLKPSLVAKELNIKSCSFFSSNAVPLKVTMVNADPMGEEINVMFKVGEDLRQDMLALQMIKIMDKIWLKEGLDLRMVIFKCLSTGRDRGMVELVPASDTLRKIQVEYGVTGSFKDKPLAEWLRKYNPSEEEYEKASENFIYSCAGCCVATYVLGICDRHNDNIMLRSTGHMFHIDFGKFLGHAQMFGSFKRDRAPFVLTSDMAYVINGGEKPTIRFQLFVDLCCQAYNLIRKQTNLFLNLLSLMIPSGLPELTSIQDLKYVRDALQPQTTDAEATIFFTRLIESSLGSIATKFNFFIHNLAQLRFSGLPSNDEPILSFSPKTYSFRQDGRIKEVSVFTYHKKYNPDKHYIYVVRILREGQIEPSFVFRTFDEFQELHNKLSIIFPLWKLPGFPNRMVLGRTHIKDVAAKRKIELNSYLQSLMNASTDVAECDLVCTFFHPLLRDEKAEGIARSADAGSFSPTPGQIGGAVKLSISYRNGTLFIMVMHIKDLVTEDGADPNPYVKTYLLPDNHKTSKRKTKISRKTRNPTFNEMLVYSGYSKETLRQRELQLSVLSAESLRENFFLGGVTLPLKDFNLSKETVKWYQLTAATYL
UniProt Q14442: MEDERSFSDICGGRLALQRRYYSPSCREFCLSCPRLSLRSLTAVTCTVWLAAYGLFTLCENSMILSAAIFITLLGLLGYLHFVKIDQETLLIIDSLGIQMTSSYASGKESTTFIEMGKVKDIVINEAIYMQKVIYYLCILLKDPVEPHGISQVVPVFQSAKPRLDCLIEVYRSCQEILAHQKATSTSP
UniProt Q86UU1: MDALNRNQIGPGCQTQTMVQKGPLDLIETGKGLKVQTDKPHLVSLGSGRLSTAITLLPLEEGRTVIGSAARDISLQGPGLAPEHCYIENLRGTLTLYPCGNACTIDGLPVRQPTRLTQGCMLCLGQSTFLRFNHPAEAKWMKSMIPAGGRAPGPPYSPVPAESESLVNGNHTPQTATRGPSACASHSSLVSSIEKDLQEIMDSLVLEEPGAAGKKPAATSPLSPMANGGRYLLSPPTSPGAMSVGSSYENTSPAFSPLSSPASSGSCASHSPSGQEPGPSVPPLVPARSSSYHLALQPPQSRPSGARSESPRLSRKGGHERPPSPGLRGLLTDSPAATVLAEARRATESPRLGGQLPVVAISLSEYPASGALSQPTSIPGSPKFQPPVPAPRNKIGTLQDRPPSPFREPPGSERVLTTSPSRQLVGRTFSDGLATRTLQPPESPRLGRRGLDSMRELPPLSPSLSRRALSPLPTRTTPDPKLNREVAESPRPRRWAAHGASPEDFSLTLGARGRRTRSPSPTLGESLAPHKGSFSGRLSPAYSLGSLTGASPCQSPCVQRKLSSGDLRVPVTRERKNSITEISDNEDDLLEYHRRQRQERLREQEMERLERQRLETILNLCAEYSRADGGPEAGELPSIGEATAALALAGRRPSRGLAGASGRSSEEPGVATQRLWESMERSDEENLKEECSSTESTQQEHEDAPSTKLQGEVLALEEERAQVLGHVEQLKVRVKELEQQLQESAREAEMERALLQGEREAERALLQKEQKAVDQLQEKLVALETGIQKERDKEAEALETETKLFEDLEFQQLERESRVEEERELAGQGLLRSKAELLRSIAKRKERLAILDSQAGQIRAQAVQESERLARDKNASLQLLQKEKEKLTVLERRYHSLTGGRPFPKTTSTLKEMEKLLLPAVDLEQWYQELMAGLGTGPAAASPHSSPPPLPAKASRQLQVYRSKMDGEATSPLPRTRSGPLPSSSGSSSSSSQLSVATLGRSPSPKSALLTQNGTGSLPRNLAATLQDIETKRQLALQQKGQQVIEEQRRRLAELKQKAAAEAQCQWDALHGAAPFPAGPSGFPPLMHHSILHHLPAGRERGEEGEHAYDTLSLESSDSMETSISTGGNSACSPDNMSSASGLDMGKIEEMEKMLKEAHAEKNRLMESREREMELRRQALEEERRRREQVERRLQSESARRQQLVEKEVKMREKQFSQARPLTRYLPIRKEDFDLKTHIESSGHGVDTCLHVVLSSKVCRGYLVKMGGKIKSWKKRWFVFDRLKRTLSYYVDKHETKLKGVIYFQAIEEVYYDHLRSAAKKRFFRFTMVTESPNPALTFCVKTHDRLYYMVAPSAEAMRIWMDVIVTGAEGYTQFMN
UniProt O75925, whole entry, looked up: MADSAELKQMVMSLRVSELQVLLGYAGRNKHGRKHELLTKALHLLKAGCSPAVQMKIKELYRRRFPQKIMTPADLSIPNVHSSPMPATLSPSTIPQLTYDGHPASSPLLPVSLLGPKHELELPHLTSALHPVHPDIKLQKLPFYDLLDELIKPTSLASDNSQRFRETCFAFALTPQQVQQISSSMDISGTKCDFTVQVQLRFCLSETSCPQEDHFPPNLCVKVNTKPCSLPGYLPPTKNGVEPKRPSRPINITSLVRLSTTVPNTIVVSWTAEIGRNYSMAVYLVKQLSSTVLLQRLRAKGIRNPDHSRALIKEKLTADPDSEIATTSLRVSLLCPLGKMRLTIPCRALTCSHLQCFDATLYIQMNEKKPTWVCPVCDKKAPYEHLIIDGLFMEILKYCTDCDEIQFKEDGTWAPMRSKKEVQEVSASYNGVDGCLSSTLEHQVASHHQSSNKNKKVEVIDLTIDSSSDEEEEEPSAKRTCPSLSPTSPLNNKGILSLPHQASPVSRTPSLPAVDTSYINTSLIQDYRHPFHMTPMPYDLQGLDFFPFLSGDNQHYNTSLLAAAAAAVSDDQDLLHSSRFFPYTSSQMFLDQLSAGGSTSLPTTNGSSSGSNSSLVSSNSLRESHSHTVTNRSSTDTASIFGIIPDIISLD

What was measured:
Experiment in all cases: log2 fold change, soluble protein after heating vs DMSO (PISA); higher = thermal stabilisation; K562 cells, 10 uM, 30 min; active = over 0.2 and 3.5 SD of the protein, either way, in both replicates (recomputed)
IRAK-1-4 Inhibitor I = compound: C1COCCN1CCN2C3=CC=CC=C3N=C2NC(=O)C4=CC(=CC=C4)[N+](=O)[O-] [IRAK-1-4 Inhibitor I]
Method in brief: (§1)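 K562 cells (2×10^6 cells/mL) were treated with 10 μM compound for 30 min, and aliquots were heated for 3 min over 48°C-58°C. Pooled aliquots were extracted in PBS with 0.5% NP-40 at 4°C, and the supernatant after 21,000xg for 90 min was measured by TMTpro 16plex LC-MS/MS with channel sums equalised. Reported thermal stability, relative to control samples and from duplicates, is a log2 fold change.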

ibrutinib = compound: C=CC(=O)N1CCC[C@@H](n2nc(-c3ccc(Oc4ccccc4)cc3)c3c(N)ncnc32)C1 [ibrutinib]
Method in brief: as §1

[1] = compound: CC(=O)c1cnc2ccc(-c3cc(Cl)c(O)c(Cl)c3)nc2c1N[C@H]1CC[C@H](CN(C)C)CC1
Method in brief: as §1

ralimetinib = compound: CC(C)(C)Cn1c(N)nc2ccc(-c3[nH]c(C(C)(C)C)nc3-c3ccc(F)cc3)nc21 [ralimetinib]
Method in brief: as §1

[2] = compound: CC(C)(O)CC(=O)NCCn1ccc2ncnc(Nc3ccc(Oc4cccc(C(F)(F)F)c4)c(Cl)c3)c21
Method in brief: as §1

[3] = compound: CC(C)C1=C2N=C(C=C(N2N=C1)NCC3=CC=CC=C3)NCCCCCCN
Method in brief: as §1

[4] = compound: CC(C)C[C@@H](C=O)NC(=O)[C@H](CC(C)C)NC(=O)[C@H](CC(C)C)NC(=O)OCc1ccccc1
Method in brief: as §1

pinometostat = compound: CC(C)N(C[C@H]1O[C@@H](n2cnc3c(N)ncnc32)[C@H](O)[C@@H]1O)[C@H]1C[C@@H](CCc2nc3cc(C(C)(C)C)ccc3[nH]2)C1 [pinometostat]
Method in brief: as §1

[5] = compound: CC1=C(C=C(C=C1)NC(=O)C2=CC(=CC=C2)C(C)(C)C#N)NC3=CC4=C(C=C3)N=CN(C4=O)C
Method in brief: as §1

[6] = compound: CC1=C(C=C(C=C1)NC(=O)C2=CC(=CC=C2)N(C)C)NC(=O)C3=CC=C(C=C3)O
Method in brief: as §1

[7] = compound: CC1=CC=C(C=C1)SC2=C3C=C(SC3=CN=C2)C(=O)N
Method in brief: as §1

[8] = compound: CC1=NC(=CC=C1)C2=C(N=C(N2)C(C)(C)C)C3=CC4=NC=CN=C4C=C3
Method in brief: as §1

Nexturastat A = compound: CCCCN(Cc1ccc(C(=O)NO)cc1)C(=O)Nc1ccccc1 [Nexturastat A]
Method in brief: as §1

vemurafenib = compound: CCCS(=O)(=O)Nc1ccc(F)c(C(=O)c2c[nH]c3ncc(-c4ccc(Cl)cc4)cc23)c1F [vemurafenib]
Method in brief: as §1

[9] = compound: CCCS(=O)(=O)Nc1ccc(F)c(C(=O)c2c[nH]c3ncc(Cl)cc23)c1F
Method in brief: as §1

[10] = compound: CCCc1cc(C)[nH]c(=O)c1CNC(=O)c1cc(-c2ccnc(N3CCN(C)CC3)c2)cc2c1cnn2C(C)C
Method in brief: as §1

givinostat = compound: CCN(CC)Cc1ccc2cc(COC(=O)Nc3ccc(C(=O)NO)cc3)ccc2c1 [givinostat]
Method in brief: as §1

barasertib = compound: CCN(CCCOc1ccc2c(Nc3cc(CC(=O)Nc4cccc(F)c4)[nH]n3)ncnc2c1)CCOP(=O)(O)O [barasertib]
Method in brief: as §1

[11] = compound: CC1=C(C(CC(=O)N1)C2=CC=C(C=C2)C(F)(F)F)C(=O)NC3=C(C=C4C(=C3)C=NN4)F
Method in brief: as §1

[12] = compound: CC1=C(C2=C(C=C1)C(=O)C3=CC=CC=C3N2CCCN)C
Method in brief: as §1

Target	log2 fold change (IRAK-1-4 Inhibitor I)	log2 fold change (ibrutinib)	log2 fold change [1]	log2 fold change (ralimetinib)	log2 fold change [2]	log2 fold change [3]	log2 fold change [4]	log2 fold change (pinometostat)	log2 fold change [5]	log2 fold change [6]	log2 fold change [7]	log2 fold change [8]	log2 fold change (Nexturastat A)	log2 fold change (vemurafenib)	log2 fold change [9]	log2 fold change [10]	log2 fold change (givinostat)	log2 fold change (barasertib)	log2 fold change [11]	log2 fold change [12]
PGPEP1 (UniProt Q9NXJ5)	inactive: -0.106	inactive: -0.097	inactive: -0.211	inactive: -0.06	inactive: -0.035	inactive: -0.271	inactive: -0.004	inactive: 0.14	inactive: 0.039	inactive: -0.132	inactive: 0.087	inactive: -0.014	inactive: 0.163	inactive: -0.314	inactive: 0.146	inactive: 0.051	inactive: -0.03	inactive: 0.098	–	–
PIGO (UniProt Q8TEQ8)	inactive: -0.055	inactive: -0.016	–	–	inactive: -0.066	inactive: -0.202	–	inactive: 0.023	–	–	–	inactive: 0	inactive: 0.068	inactive: 0.009	–	inactive: -0.162	inactive: -0.029	inactive: -0.006	inactive: 0.026	inactive: -0.031
PFN1 (UniProt I3L3D5)	inactive: 0.053	inactive: 0.093	inactive: -0.043	inactive: -0.136	inactive: 0.159	inactive: 0.042	inactive: 0.259	inactive: 0.053	inactive: -0.26	inactive: 0.161	inactive: -0.087	inactive: -0.303	inactive: 0.178	–	inactive: -0.148	inactive: -0.252	inactive: 0.073	inactive: 0.032	–	inactive: 0.037
PKM isoform 2 (UniProt P14618)	inactive: -0.018	–	inactive: 0	inactive: 0.054	active: -0.561	–	inactive: 0.023	inactive: 0.08	inactive: -0.13	inactive: -0.082	inactive: 0.049	inactive: 0.033	inactive: 0.267	inactive: 0.088	inactive: 0.094	inactive: 0.056	–	inactive: -0.005	–	inactive: 0.034
PIGB (UniProt Q92521)	inactive: -0.025	–	–	inactive: 0.009	inactive: -0.002	inactive: 0.135	inactive: 0.04	inactive: 0.019	inactive: -0.107	inactive: -0.001	inactive: -0.006	inactive: -0.012	inactive: 0.083	–	inactive: 0.009	inactive: 0.07	inactive: -0.01	–	–	inactive: -0.072
PHOSPHO2 (UniProt Q8TCD6)	inactive: -0.052	inactive: -0.084	inactive: -0.032	inactive: -0.222	–	inactive: 0.01	inactive: -0.12	inactive: -0.04	–	inactive: -0.093	–	inactive: 0.039	–	inactive: 0.167	–	inactive: 0.01	inactive: -0.042	inactive: -0.024	–	inactive: 0.038
PHKA1 (UniProt P46020)	inactive: -0.043	inactive: -0.001	inactive: 0.306	inactive: -0.03	inactive: -0.161	inactive: 0.011	inactive: 0.195	inactive: -0.023	inactive: -0.027	inactive: -0.155	inactive: -0.062	inactive: -0.033	inactive: 0.047	–	inactive: 0.019	inactive: 0.076	inactive: -0.024	inactive: -0.133	–	inactive: 0.022
PIK3C2A (UniProt O00443)	inactive: -0.103	–	–	inactive: 0.167	inactive: 0	inactive: 0.112	inactive: 0.281	inactive: -0.1	inactive: -0.003	inactive: 0.085	–	inactive: 0.097	inactive: 0.616	–	–	inactive: -0.296	inactive: -0.078	–	inactive: -0.056	–
PIGH (UniProt Q14442)	inactive: -0.207	inactive: 0.022	inactive: -0.004	inactive: -0.017	inactive: 0.023	inactive: 0.014	inactive: -0.004	inactive: 0.139	–	inactive: 0.001	inactive: 0.027	inactive: 0	inactive: 0.141	inactive: 0	inactive: -0.025	inactive: -0.069	inactive: -0.011	inactive: -0.219	–	inactive: 0.096
PHLDB1 isoform 2 (UniProt Q86UU1)	inactive: 0.014	inactive: -0.055	active: -0.832	inactive: 0.005	inactive: -0.053	inactive: -0.018	inactive: 0.016	inactive: -0.011	–	inactive: 0.01	inactive: 0.047	inactive: 0.047	inactive: 0.045	inactive: 0.031	inactive: 0.016	inactive: 0.14	inactive: -0.012	inactive: 0.117	–	inactive: 0.118
PIAS1 isoform 2 (UniProt O75925)	inactive: 0.057	inactive: -0.641	–	inactive: 0.056	–	–	inactive: 0.19	inactive: 0.076	–	inactive: -0.078	inactive: -0.025	inactive: 0.138	–	–	inactive: 0.005	–	–	inactive: 0.154	–	–

Single records, from the list above. Order of values: log2 fold change (IRAK-1-4 Inhibitor I) | log2 fold change (ibrutinib) | log2 fold change [1] | log2 fold change (ralimetinib) | log2 fold change [2] | log2 fold change [3] | log2 fold change [4] | log2 fold change (pinometostat) | log2 fold change [5] | log2 fold change [6] | log2 fold change [7] | log2 fold change [8] | log2 fold change (Nexturastat A) | log2 fold change (vemurafenib) | log2 fold change [9] | log2 fold change [10] | log2 fold change (givinostat) | log2 fold change (barasertib) | log2 fold change [11] | log2 fold change [12]
PKM isoform 2 (UniProt P14618) is listed with inactive: -0.018 | – | inactive: 0 | inactive: 0.054 | active: -0.561 | – | inactive: 0.023 | inactive: 0.08 | inactive: -0.13 | inactive: -0.082 | inactive: 0.049 | inactive: 0.033 | inactive: 0.267 | inactive: 0.088 | inactive: 0.094 | inactive: 0.056 | – | inactive: -0.005 | – | inactive: 0.034
PHKA1 (UniProt P46020) is listed with inactive: -0.043 | inactive: -0.001 | inactive: 0.306 | inactive: -0.03 | inactive: -0.161 | inactive: 0.011 | inactive: 0.195 | inactive: -0.023 | inactive: -0.027 | inactive: -0.155 | inactive: -0.062 | inactive: -0.033 | inactive: 0.047 | – | inactive: 0.019 | inactive: 0.076 | inactive: -0.024 | inactive: -0.133 | – | inactive: 0.022
